We go through 3 molecules from paper doi:10.1101/2020.03.10.983148.

Protein sequences, listed by entry. Tags and fused reporters are not part of them.
UniProt Q3URK3: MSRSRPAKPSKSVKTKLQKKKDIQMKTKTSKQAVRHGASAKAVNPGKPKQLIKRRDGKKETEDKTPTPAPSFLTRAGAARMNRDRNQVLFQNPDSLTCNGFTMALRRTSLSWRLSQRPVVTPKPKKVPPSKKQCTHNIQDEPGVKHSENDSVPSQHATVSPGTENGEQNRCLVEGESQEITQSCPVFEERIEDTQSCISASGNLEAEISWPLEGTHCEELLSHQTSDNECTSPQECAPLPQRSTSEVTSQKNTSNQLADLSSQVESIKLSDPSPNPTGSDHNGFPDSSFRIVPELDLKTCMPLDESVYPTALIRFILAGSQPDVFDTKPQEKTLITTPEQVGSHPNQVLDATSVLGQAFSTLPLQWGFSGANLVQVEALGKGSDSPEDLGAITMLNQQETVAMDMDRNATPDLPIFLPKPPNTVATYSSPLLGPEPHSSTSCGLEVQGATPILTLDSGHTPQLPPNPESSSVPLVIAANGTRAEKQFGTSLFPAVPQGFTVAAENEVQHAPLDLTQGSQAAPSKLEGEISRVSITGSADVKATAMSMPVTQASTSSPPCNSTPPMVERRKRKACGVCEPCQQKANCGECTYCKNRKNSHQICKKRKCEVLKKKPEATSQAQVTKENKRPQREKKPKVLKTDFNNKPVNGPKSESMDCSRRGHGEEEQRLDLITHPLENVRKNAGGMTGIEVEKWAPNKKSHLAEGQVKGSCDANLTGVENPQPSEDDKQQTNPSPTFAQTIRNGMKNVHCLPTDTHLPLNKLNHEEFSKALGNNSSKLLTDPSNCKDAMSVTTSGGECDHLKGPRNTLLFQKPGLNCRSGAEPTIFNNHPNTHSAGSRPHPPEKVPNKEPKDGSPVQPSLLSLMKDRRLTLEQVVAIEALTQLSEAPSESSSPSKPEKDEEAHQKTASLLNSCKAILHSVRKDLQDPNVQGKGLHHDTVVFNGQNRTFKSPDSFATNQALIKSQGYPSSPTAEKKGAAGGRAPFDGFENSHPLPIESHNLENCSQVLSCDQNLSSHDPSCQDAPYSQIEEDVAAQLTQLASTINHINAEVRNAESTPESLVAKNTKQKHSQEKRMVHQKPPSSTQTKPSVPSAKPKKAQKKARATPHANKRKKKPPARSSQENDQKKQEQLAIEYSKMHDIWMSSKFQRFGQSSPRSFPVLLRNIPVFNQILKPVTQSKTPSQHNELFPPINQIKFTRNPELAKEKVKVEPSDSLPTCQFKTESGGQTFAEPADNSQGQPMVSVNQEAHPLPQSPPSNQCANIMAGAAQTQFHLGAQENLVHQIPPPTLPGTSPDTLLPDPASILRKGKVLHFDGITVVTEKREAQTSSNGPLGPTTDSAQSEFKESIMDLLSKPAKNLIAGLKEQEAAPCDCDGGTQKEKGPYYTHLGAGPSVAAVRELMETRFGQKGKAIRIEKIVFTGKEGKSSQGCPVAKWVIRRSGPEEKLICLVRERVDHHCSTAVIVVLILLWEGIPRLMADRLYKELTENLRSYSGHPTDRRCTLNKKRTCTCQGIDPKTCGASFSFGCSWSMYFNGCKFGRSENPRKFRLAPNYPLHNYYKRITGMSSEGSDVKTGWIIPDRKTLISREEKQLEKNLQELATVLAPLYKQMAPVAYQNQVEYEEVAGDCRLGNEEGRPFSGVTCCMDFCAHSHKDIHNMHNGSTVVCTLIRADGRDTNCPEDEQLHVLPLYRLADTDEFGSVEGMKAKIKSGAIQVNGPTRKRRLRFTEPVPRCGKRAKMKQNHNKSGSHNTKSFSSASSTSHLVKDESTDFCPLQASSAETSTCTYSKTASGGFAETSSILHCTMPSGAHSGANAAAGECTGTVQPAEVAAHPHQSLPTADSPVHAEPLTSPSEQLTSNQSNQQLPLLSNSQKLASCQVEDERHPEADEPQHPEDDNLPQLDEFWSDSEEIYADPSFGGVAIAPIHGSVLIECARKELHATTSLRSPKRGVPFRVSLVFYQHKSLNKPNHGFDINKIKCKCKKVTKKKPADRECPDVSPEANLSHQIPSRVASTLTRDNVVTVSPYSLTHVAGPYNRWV
UniProt Q4JK59: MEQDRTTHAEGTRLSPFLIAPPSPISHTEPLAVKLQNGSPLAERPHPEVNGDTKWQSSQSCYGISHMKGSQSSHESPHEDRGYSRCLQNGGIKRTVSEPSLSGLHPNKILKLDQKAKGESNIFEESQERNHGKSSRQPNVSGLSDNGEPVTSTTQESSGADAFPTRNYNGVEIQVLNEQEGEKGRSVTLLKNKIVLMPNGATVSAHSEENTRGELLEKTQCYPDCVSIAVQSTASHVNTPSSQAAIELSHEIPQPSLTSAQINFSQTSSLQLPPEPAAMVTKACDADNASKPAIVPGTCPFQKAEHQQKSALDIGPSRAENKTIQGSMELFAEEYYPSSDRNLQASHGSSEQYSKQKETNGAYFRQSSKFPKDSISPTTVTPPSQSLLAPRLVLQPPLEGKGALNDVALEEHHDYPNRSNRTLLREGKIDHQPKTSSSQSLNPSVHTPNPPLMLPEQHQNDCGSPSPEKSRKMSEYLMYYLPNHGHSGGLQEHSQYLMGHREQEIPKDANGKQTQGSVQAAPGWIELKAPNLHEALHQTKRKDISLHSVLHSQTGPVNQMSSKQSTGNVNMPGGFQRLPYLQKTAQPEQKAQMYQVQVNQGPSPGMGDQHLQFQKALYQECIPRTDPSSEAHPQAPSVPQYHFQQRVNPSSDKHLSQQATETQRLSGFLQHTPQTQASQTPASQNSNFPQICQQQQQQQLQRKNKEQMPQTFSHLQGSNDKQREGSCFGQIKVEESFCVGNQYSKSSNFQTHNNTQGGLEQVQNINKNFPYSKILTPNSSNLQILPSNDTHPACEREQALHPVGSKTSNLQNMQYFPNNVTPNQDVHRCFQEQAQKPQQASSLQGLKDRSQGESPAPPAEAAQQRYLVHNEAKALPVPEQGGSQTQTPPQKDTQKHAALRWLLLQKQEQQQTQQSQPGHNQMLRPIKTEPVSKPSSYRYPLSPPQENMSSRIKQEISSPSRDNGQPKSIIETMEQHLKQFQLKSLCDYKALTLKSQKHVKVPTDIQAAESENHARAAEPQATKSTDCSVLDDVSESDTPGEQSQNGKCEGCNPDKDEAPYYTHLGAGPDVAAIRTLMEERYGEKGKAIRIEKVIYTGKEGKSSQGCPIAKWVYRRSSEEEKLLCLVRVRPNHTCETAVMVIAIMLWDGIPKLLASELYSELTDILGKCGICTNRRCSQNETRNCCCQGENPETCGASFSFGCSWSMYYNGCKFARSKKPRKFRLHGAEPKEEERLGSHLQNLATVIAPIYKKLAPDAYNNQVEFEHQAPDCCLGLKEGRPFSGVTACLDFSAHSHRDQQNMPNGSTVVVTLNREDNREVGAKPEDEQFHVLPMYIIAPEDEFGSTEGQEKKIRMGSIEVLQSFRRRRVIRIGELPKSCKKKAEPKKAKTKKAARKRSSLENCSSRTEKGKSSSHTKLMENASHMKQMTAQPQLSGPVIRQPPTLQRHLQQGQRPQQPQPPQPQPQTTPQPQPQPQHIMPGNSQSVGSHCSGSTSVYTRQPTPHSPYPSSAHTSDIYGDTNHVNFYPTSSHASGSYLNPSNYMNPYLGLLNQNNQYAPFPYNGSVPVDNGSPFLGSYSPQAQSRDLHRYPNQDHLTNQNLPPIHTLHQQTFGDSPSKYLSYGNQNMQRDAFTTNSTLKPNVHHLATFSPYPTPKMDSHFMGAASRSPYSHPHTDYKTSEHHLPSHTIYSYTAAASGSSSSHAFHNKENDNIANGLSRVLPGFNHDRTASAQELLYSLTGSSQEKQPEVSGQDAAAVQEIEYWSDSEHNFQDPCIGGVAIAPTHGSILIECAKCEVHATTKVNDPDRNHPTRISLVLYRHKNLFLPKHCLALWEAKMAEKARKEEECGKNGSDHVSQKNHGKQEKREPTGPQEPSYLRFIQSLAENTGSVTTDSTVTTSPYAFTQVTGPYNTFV

The target in test [1] is Tet1, endogenous in mouse embryonic stem cells (mouse (endogenous in ES cells)) (UniProt Q3URK3). The experiment in a line: co-IP.
The target of test [2] is Tet2, endogenous in mouse embryonic stem cells (mouse (endogenous in ES cells)) (UniProt Q4JK59). The experiment in a line: co-IP.
Test [3] addresses full-length Halo-tagged human TET1 (human) (UniProt Q8NFU7). The experiment in a line: pull-down.
Test [4] deals with full-length Halo-tagged human TET2 (human) (UniProt Q6N021). The experiment in a line: pull-down.
In test [5] the target is T1, full-length Halo-tagged human TET3 (human), O43151.
T1 chain: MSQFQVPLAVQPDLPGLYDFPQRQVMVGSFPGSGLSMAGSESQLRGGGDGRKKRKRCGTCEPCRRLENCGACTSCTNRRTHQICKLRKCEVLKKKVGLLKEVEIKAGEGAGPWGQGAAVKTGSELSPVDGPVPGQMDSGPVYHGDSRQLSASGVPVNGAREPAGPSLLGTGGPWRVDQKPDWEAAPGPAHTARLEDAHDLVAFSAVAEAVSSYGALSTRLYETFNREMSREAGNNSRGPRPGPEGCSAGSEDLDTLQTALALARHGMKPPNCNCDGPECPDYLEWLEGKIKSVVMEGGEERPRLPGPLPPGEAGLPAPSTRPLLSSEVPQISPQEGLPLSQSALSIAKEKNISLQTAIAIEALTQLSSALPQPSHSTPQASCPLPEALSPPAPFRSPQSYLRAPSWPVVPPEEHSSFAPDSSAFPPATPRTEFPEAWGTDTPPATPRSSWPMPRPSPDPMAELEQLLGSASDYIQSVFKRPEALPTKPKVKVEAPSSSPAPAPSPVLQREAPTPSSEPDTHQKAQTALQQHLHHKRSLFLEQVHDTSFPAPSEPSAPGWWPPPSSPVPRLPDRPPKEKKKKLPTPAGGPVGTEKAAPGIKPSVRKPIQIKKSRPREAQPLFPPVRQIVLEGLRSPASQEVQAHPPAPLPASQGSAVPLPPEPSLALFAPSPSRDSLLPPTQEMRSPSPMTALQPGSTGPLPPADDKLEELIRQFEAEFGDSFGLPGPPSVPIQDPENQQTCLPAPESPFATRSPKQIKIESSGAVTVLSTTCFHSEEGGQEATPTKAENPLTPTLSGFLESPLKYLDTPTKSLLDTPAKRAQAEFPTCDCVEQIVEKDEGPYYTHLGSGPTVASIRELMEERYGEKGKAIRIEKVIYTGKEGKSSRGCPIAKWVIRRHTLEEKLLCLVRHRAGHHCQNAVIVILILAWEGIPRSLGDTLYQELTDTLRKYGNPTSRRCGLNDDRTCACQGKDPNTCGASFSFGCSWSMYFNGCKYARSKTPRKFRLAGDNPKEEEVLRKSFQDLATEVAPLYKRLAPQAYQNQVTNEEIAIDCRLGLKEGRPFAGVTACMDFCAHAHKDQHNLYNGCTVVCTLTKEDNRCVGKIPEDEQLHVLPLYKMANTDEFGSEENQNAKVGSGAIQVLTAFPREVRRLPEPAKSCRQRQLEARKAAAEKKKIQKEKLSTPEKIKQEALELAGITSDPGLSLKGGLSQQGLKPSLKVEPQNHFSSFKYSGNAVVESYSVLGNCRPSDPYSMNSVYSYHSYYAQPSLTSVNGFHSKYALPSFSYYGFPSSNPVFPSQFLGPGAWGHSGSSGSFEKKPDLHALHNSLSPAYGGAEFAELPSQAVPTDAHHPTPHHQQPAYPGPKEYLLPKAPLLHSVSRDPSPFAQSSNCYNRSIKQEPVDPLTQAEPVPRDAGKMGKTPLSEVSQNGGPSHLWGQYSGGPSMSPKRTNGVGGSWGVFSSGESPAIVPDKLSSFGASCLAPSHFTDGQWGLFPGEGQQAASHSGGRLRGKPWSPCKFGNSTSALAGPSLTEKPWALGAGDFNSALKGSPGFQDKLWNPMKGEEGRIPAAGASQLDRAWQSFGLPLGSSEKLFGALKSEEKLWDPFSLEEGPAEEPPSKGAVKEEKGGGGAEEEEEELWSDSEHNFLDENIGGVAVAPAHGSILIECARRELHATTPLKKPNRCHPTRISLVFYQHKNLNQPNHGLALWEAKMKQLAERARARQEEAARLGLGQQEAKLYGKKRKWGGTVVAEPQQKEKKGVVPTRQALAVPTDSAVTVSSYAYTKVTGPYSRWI
The experiment in a line: pull-down. Conditions: remark: other sources report otherwise.

These are yes or no findings as the source states them, for the method shown. Binding seen in cells or lysates may run through a third protein. Some entries that bind do so weakly or less than the wild type. For some assays here: Where a sequence is shown, tags or fusion partners need not be part of it.

B1: Lsh, endogenous in mouse embryonic stem cells (protein, UniProt Q60848 1-821)
chain: MAEQTEPAVITPAMLEEEEQLEAAGLEKERKMLEEAQKSWDRESTEIRYRRLQHLLEKSNIYSKFLLTKMEQQQLEEQKKKEKLEKKKRSLKLTEGKSLVDGNGEKPVMKKKRGREDESYNISEVMSKEEILSVAKKHKDNEDESSSTTSLCVEDIQKNKDSNSMIKDRLSQTVRQNSKFFFDPVRKCNGQPVPFQQPKHFTGGVMRWYQVEGMEWLRMLWENGINGILADEMGLGKTVQCIATIALMIQRGVPGPFLVCGPLSTLPNWMAEFKRFTPEIPTLLYHGTREDRRKLVKNIHKRQGTLQIHPVVVTSFEIAMRDQNALQHCYWKYLIVDEGHRIKNMKCRLIRELKRFNADNKLLLTGTPLQNNLSELWSLLNFLLPDVFDDLKSFESWFDITSLSETAEDIIAKEREQNVLHMLHQILTPFLLRRLKSDVALEVPPKREVVVYAPLCNKQEIFYTAIVNRTIANMFGSCEKETVELSPTGRPKRRSRKSINYSELDQFPSELEKLISQIQPEVNRERTVVEGNIPIESEVNLKLRNIMMLLRKCCNHPYMIEYPIDPVTQEFKIDEELVTNSGKFLILDRMLPELKKRGHKVLVFSQMTSMLDILMDYCHLRNFIFSRLDGSMSYSEREKNIYSFNTDPDVFLFLVSTRAGGLGINLTAADTVIIYDSDWNPQSDLQAQDRCHRIGQTKPVVVYRLVTANTIDQKIVERAAAKRKLEKLIIHKNHFKGGQSGLSQSKNFLDAKELMELLKSRDYEREVKGSREKVISDEDLELLLDRSDLIDQMKASRPIKGKTGIFKILENSEDSSAECLF
B1: the binding result in test [1] and in test [2] was “binds” in each case.

B2: lymphoid-specific helicase (LSH), endogenous in HEK293T cells (protein, UniProt Q9NRZ9 1-838)
chain: MPAERPAGSGGSEAPAMVEQLDTAVITPAMLEEEEQLEAAGLERERKMLEKARMSWDRESTEIRYRRLQHLLEKSNIYSKFLLTKMEQQQLEEQKKKEKLERKKESLKVKKGKNSIDASEEKPVMRKKRGREDESYNISEVMSKEEILSVAKKNKKENEDENSSSTNLCVEDLQKNKDSNSIIKDRLSETVRQNTKFFFDPVRKCNGQPVPFQQPKHFTGGVMRWYQVEGMEWLRMLWENGINGILADEMGLGKTVQCIATIALMIQRGVPGPFLVCGPLSTLPNWMAEFKRFTPDIPTMLYHGTQEERQKLVRNIYKRKGTLQIHPVVITSFEIAMRDRNALQHCYWKYLIVDEGHRIKNMKCRLIRELKRFNADNKLLLTGTPLQNNLSELWSLLNFLLPDVFDDLKSFESWFDITSLSETAEDIIAKEREQNVLHMLHQILTPFLLRRLKSDVALEVPPKREVVVYAPLSKKQEIFYTAIVNRTIANMFGSSEKETIELSPTGRPKRRTRKSINYSKIDDFPNELEKLISQIQPEVDRERAVVEVNIPVESEVNLKLQNIMMLLRKCCNHPYLIEYPIDPVTQEFKIDEELVTNSGKFLILDRMLPELKKRGHKVLLFSQMTSMLDILMDYCHLRDFNFSRLDGSMSYSEREKNMHSFNTDPEVFIFLVSTRAGGLGINLTAADTVIIYDSDWNPQSDLQAQDRCHRIGQTKPVVVYRLVTANTIDQKIVERAAAKRKLEKLIIHKNHFKGGQSGLNLSKNFLDPKELMELLKSRDYEREIKGSREKVISDKDLELLLDRSDLIDQMNASGPIKEKMGIFKILENSEDSSPECLF
For B2, the binding entry in test [3] and in test [4] was “binds” throughout.

B3: lymphoid-specific helicase (LSH), endogenous in HEK293T cells, Q9NRZ9 1-838 (protein)
chain: B2 chain
Consider B3, for which, in test [5], the binding entry is “binds”.
